Results taken from the supplement of paper PMC12067093, “Discovery and optimisation of a covalent ligand for TRIM25 and its application to targeted protein ubiquitination” (Chemical Science, 2025).
The other results are listed elsewhere or left out.

The chains behind the UniProt entries cited, without tags or fusion partners. Where a name states a change or a piece, a line headed by the entry shows the natural chain unless it says otherwise.
UniProt O00635: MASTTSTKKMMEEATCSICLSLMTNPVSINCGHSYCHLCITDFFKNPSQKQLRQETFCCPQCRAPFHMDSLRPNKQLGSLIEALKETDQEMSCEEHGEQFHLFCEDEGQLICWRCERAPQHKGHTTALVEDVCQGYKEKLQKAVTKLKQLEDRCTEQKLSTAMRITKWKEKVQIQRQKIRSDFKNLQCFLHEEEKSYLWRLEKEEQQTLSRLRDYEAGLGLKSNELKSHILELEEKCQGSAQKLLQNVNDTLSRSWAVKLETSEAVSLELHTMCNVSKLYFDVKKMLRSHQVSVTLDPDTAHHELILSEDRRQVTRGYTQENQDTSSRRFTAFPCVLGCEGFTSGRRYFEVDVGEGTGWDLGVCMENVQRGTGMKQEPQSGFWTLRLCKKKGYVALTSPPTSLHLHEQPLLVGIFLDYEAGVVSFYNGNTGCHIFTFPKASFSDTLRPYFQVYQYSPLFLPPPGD
UniProt O14545: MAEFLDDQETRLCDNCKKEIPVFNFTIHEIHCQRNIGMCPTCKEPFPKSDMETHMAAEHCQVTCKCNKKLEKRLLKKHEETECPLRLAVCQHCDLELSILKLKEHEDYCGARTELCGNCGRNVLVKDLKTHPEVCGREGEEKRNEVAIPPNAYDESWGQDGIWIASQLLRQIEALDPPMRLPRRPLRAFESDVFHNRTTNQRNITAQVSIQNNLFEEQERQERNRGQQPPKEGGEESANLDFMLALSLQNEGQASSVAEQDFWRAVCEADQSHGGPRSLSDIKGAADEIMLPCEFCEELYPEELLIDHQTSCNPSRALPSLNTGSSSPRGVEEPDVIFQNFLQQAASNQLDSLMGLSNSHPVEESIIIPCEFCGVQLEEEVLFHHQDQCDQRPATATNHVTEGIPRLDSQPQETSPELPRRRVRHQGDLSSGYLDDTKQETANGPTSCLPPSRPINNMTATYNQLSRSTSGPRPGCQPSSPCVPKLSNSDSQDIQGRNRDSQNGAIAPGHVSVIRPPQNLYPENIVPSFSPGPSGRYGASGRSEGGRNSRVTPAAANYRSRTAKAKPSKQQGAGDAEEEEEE
UniProt Q14258, whole entry, looked up: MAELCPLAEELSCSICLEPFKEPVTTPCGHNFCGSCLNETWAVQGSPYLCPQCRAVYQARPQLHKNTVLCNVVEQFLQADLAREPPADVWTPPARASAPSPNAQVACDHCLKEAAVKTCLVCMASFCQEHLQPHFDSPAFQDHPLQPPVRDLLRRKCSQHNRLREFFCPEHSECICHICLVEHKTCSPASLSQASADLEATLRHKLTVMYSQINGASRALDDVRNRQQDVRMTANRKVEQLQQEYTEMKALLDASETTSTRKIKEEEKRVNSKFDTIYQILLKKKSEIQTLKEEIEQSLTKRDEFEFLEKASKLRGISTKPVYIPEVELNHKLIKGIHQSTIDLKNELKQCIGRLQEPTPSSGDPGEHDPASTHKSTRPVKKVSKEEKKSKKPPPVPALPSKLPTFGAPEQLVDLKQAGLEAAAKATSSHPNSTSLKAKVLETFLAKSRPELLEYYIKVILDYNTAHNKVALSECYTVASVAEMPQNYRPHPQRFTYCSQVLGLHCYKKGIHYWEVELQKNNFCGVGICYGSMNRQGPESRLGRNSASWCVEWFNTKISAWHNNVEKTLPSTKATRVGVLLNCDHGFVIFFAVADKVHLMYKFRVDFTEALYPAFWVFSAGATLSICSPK
UniProt P48553, whole entry, looked up: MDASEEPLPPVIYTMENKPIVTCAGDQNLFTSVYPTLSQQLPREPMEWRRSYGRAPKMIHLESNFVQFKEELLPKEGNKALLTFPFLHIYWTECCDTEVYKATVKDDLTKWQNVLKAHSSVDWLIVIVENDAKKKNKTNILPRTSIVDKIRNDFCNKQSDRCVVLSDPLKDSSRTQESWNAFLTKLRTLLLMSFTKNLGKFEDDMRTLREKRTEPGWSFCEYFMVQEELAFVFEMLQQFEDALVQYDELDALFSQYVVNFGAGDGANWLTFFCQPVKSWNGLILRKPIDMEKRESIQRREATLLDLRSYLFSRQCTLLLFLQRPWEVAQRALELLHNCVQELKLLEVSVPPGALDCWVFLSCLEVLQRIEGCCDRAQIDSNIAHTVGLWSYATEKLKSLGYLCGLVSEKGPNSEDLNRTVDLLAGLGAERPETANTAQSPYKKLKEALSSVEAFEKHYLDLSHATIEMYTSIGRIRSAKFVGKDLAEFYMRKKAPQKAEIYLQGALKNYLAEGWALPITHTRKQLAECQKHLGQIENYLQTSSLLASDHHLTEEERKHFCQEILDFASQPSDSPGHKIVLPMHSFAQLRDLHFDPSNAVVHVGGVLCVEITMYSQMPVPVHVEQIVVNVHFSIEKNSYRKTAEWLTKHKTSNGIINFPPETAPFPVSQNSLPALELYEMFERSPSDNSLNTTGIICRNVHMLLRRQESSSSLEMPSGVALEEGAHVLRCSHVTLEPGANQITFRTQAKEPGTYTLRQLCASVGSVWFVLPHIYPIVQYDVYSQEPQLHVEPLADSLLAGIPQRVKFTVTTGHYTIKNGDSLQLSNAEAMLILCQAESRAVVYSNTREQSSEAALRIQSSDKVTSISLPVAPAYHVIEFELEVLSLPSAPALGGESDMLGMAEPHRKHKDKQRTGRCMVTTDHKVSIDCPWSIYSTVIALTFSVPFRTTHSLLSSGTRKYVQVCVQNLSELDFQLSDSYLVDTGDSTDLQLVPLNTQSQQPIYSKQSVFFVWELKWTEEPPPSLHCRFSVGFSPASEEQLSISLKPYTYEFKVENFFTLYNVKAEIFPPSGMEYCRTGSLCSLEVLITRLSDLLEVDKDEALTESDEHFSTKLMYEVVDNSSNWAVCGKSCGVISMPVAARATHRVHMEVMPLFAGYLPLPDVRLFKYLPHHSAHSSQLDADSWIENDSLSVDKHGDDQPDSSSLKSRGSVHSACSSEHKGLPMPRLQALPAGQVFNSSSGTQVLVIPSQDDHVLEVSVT
UniProt O75865, whole entry: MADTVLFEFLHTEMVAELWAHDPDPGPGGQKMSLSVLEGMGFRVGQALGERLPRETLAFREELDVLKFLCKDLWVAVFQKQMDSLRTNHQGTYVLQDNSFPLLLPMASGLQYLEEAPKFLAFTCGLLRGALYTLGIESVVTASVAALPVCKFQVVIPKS
UniProt Q9UL33, whole entry, looked up: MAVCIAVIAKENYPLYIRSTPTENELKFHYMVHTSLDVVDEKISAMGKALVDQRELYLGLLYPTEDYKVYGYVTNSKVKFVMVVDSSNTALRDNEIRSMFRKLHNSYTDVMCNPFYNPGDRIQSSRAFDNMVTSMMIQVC
UniProt Q9BRZ2: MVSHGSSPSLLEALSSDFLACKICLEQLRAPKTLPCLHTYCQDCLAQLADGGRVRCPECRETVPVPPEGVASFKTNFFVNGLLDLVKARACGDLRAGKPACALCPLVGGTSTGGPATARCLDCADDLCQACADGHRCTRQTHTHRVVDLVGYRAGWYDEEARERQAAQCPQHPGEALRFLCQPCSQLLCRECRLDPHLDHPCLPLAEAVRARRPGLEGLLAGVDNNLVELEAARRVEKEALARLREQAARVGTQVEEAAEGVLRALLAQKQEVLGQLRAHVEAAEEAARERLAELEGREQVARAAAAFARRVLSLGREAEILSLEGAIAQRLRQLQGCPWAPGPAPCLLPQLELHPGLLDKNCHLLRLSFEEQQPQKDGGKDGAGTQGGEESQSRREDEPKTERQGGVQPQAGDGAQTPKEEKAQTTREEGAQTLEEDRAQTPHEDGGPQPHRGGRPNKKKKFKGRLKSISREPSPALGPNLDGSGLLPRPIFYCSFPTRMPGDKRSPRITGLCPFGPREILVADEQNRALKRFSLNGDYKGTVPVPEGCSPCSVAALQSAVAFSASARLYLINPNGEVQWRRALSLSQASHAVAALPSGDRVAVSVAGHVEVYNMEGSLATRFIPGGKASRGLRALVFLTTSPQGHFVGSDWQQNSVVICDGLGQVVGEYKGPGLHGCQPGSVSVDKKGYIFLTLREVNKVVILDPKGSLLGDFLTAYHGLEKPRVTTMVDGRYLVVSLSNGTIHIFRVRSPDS
UniProt Q9NSU2: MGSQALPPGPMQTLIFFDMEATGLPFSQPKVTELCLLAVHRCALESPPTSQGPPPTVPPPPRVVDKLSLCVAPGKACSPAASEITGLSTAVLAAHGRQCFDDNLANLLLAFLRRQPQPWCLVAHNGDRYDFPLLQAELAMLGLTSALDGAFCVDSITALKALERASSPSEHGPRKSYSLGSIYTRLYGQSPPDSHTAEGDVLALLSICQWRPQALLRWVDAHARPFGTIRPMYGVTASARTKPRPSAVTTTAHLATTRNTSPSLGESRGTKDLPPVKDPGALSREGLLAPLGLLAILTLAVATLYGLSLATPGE
UniProt Q9UPN9: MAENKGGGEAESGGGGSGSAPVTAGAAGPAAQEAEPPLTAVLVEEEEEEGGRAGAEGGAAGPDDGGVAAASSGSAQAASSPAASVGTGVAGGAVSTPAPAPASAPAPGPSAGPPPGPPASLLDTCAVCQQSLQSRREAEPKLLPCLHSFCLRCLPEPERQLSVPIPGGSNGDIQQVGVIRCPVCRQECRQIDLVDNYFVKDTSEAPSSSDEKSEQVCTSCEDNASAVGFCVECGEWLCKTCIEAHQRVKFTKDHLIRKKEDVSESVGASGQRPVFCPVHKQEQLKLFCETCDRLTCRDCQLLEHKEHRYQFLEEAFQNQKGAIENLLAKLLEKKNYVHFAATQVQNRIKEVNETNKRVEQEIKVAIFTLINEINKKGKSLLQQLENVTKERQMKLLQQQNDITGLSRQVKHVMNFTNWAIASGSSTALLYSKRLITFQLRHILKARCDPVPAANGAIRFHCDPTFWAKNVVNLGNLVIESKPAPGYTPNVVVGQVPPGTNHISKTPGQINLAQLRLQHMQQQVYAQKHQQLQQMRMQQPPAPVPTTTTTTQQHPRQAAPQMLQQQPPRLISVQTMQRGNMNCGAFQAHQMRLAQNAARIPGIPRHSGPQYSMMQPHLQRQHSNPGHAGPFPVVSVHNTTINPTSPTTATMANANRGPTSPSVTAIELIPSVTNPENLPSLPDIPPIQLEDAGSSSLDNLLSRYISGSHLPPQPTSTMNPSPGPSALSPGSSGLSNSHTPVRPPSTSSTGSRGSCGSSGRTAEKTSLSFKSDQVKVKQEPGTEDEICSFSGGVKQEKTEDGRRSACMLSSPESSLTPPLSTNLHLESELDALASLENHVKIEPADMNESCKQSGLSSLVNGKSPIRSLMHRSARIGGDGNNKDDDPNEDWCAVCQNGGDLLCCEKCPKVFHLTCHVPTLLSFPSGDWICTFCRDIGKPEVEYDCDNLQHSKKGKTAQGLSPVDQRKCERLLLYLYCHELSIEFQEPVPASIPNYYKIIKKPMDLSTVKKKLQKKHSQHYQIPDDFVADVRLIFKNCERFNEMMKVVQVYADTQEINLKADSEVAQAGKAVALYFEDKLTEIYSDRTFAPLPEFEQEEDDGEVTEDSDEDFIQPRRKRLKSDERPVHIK
UniProt Q12931: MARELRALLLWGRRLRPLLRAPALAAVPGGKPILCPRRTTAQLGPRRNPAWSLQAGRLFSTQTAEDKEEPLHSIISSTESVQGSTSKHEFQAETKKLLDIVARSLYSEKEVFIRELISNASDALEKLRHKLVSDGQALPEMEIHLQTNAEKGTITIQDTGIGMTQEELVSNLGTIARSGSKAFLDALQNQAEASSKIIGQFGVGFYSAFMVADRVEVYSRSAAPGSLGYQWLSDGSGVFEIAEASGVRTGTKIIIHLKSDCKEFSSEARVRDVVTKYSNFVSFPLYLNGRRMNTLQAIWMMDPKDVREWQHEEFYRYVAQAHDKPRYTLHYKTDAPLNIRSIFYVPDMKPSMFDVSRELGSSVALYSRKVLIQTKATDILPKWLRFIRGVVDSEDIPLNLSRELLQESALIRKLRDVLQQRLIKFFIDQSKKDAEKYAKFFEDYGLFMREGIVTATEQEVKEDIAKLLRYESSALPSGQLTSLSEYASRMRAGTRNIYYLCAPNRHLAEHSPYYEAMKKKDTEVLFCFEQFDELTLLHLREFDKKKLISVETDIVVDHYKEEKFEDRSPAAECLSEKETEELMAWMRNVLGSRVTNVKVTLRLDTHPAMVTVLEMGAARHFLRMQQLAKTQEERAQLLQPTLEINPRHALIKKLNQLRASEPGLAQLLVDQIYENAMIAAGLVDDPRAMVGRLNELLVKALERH

Compound: Cc1cc(ccc1-c1ccccc1)C(=O)N1CCCN(CC1)C(=O)CCl [compound 10]
Assay: probe-labelled cysteine peptide fold change vs DMSO (competition) (log2 fold change); higher = less target engagement (more negative = stronger competition)
Settings: THP-1, incubation time: 4 h
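Also: competitive profiling in live THP-1 cells: cysteine peptides tagged with an iodoacetamide desthiobiotin (IA-DTB) probe, intensity after compound treatment relative to DMSO-treated cells.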

| Target | probe-labelled cysteine peptide fold change (10 µM) | probe-labelled cysteine peptide fold change (50 µM) |
| --- | --- | --- |
| TPP2_P29144_1129_KGCALADHLLHTQAQDGAISTDAEGKEEEGESPLDSLAETFWETTK (UniProt P29144) | 0.143 | -0.674 |
| TRIM38_O00635_104_ETDQEMSCEEHGEQFHLFCEDEGQLICWR (UniProt O00635) | -0.123 | -0.801 |
| TRAFD1_O14545_83_KHEETECPLR (UniProt O14545) | 0.0302 | -0.16 |
| TRIP6_Q15654_304+310_VFHVGCFVCSTCR (UniProt Q15654) | 0.322 | 0.079 |
| TPP1_O14773_365_GLTLLFASGDSGAGCWSVSGR (UniProt O14773) | -0.146 | 0.0356 |
| TPP2_P29144_197_KYSDPGPVYDCLVWHDGEVWR (UniProt P29144) | -0.0978 | -0.234 |
| TRAFD1_O14545_93_LAVCQHCDLELSILK (UniProt O14545) | -0.0117 | -0.347 |
| TRIP6_Q15654_282_LVHDMNHPPSGEYFGQCGGCGEDVVGDGAGVVALDR (UniProt Q15654) | 0.294 | -0.00869 |
| TRIP12_Q14669_35_SCSSSSAVIVPQPEDPDRANTSER (UniProt Q14669) | 0.00993 | -0.396 |
| TRIM25_Q14258_174+176_EFFCPEHSECICHICLVEHK (UniProt Q14258) | -0.0161 | -0.0842 |
| TRAPPC10_P48553_916_CMVTTDHK (UniProt P48553) | -0.149 | -0.45 |
| TRERF1_Q96PN7_876_CHPLANYHYAGSDK (UniProt Q96PN7) | 0.125 | -0.873 |
| TRAF3IP3_Q9Y228_135_EQVTGTSSEVFPAQHPPPSGICR (UniProt Q9Y228) | 0.0655 | -0.00386 |
| TRAPPC6A_O75865_124_FLAFTCGLLR (UniProt O75865) | 0.203 | 0.608 |
| TRAF3_Q13114_141_NDCHFEELPCVRPDCK (UniProt Q13114) | -0.255 | -0.368 |
| TRMT2A_Q8IZ69_365_ASGVTCLYFVEEGQR (UniProt Q8IZ69) | 0.194 | -0.0103 |
| TRAPPC2L_Q9UL33_112_LHNSYTDVMCNPFYNPGDR (UniProt Q9UL33) | -0.0714 | 0.0356 |
| TRIT1_Q9H3H1_225_FSNPCILWLHADQAVLDER (UniProt Q9H3H1) | -0.14 | -0.236 |
| TRMT1L_Q7Z2T5_239_EADTDVQVCPNYSIPQK (UniProt Q7Z2T5) | -0.348 | -0.634 |

| Target | probe-labelled cysteine peptide fold change (10 µM) | probe-labelled cysteine peptide fold change (50 µM) |
| --- | --- | --- |
| TRIM56_Q9BRZ2_202_LDPHLDHPCLPLAEAVR (UniProt Q9BRZ2) | -0.0566 | -0.0987 |
| TREX1_Q9NSU2_77_ACSPAASEITGLSTAVLAAHGR (UniProt Q9NSU2) | 0.116 | 0.292 |
| TREX1_Q9NSU2_35_VTELCLLAVHR (UniProt Q9NSU2) | 0.154 | 0.0613 |
| TPP2_P29144_28_KETGAASFLCR (UniProt P29144) | -0.0537 | -0.321 |
| TRIM25_Q14258_174+176+179_EFFCPEHSECICHICLVEHK (UniProt Q14258) | -0.181 | -0.757 |
| TRAPPC10_P48553_729_CSHVTLEPGANQITFR (UniProt P48553) | 0.0105 | -0.106 |
| TPX2_Q9ULW0_145_CATPVIIDEILPSK (UniProt Q9ULW0) | -0.416 | -0.0813 |
| TRIM33_Q9UPN9_153_CLPEPER (UniProt Q9UPN9) | -0.069 | -0.24 |
| TRAPPC8_Q9Y2L5_548_SALLLEQAAHCFINMK (UniProt Q9Y2L5) | -0.0996 | 0.223 |
| TRIM28_Q13263_717_VLLALFCHEPCR (UniProt Q13263) | 0.00318 | 0.0176 |
| TRIP6_Q15654_368_AYHPGCFTCVVCHR (UniProt Q15654) | 0.0578 | -0.0809 |
| TRAP1_Q12931_527_DTEVLFCFEQFDELTLLHLR (UniProt Q12931) | 0.13 | 0.211 |
| TRAPPC10_P48553_560_HFCQEILDFASQPSDSPGHK (UniProt P48553) | 0.0818 | 0.0782 |
| TRANK1_O15050_2361_THLCFIR (UniProt O15050) | -0.108 | 0.147 |
| TRIOBP_Q9H2D6_2233_CQQEGQELLR (UniProt Q9H2D6) | 0.136 | -0.0418 |
| TRAPPC2L_Q9UL33_4_AVCIAVIAK (UniProt Q9UL33) | -0.0444 | 0.418 |
| TRIP6_Q15654_387_GLDGIPFTVDATSQIHCIEDFHR (UniProt Q15654) | -0.00816 | 0.0559 |
| TRIM25_Q14258_107+110_ASAPSPNAQVACDHCLK (UniProt Q14258) | -0.0215 | -0.473 |

Another view of some results above.
Target	probe-labelled cysteine peptide fold change (10 µM)	probe-labelled cysteine peptide fold change (50 µM)
TRIM56_Q9BRZ2_202_LDPHLDHPCLPLAEAVR (UniProt Q9BRZ2)	-0.0566	-0.0987
TREX1_Q9NSU2_77_ACSPAASEITGLSTAVLAAHGR (UniProt Q9NSU2)	0.116	0.292
